The results in this text go back to doi:10.1101/2025.06.10.657920.

Amino acid sequences for entries named in this document (tags omitted).
UniProt P12004: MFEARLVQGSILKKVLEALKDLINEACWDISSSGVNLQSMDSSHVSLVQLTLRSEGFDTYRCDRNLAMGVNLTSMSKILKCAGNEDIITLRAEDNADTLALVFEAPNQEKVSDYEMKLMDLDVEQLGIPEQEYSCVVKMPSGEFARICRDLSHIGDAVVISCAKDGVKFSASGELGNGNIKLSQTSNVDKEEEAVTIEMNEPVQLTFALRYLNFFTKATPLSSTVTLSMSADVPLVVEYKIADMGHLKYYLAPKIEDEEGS
UniProt Q7Z2Z1: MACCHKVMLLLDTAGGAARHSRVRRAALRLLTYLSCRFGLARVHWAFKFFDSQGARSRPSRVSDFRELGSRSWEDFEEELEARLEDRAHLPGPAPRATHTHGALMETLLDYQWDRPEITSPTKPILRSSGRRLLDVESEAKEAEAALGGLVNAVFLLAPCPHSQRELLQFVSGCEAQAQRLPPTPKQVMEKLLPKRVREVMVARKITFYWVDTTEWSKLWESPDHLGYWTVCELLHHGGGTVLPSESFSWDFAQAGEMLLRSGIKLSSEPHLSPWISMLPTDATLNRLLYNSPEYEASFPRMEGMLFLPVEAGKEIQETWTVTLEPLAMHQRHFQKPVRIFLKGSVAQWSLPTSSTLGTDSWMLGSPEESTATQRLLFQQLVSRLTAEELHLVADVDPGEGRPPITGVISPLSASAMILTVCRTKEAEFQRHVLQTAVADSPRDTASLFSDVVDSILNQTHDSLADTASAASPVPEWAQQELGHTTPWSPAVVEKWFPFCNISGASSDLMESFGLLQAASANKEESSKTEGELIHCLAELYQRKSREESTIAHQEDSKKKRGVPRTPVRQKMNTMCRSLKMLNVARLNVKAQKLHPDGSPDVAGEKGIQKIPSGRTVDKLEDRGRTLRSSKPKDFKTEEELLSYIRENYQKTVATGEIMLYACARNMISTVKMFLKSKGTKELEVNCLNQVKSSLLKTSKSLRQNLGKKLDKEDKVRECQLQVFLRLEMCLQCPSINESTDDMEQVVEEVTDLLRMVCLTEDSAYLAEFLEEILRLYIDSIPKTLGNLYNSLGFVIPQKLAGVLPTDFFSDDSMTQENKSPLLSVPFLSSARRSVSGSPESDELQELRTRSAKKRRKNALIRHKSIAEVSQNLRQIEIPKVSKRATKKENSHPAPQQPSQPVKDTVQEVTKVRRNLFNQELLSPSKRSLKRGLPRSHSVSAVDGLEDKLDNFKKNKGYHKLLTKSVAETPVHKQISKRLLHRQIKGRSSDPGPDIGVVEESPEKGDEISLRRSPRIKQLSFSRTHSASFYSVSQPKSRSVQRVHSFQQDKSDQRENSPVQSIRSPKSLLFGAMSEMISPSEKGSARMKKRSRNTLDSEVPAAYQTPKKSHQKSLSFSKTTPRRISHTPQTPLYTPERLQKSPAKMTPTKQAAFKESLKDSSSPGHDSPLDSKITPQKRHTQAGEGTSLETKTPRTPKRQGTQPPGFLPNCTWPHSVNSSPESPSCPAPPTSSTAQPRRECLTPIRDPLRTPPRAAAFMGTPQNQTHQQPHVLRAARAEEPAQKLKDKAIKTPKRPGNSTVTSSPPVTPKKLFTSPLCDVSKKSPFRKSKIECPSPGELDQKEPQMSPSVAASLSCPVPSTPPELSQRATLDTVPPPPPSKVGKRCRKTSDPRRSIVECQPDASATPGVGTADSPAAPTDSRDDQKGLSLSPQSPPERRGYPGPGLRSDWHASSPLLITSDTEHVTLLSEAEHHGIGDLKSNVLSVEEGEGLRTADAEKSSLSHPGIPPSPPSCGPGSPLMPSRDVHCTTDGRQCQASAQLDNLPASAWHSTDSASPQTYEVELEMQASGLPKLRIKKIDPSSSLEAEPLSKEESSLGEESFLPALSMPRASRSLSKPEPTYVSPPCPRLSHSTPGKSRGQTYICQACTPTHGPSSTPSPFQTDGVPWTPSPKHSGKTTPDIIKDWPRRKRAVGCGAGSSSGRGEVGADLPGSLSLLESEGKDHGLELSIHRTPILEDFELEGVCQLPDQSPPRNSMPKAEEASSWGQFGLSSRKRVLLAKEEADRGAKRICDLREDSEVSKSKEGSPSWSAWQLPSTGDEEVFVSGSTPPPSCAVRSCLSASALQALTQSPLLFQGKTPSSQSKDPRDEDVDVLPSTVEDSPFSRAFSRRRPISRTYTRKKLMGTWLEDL

The test addresses PCNA (human (endogenous in HCT116)) (UniProt P12004). Description: proximity ligation; in situ in HCT116 TRESLIN-mClover cells, pre-permeabilised and fixed as for immunofluorescence; anti-GFP (1:500) plus anti-PCNA (1:500), NaveniFlex MR100 PLA kit; control with anti-GFP alone; cells untreated or treated with the neddylation inhibitor MLN4924 (NAEi).

Results are given in words; binding and its absence hold for the method and conditions named. In cells and extracts the contact can be indirect. Some entries that bind do so weakly or less than the wild type.

With “TRESLIN-mClover (endogenously tagged TRESLIN) (from UniProt Q7Z2Z1 1-1910)”, the binding result was “binds”.
